These are yes or no findings as the source states them, for the method shown. Binding seen in cells or lysates may run through a third protein. Some entries that bind do so weakly or less than the wild type.
Biological target: T1, PhoP (B. subtilis (endogenous in MH9237)) (UniProt P13792)
T1 sequence: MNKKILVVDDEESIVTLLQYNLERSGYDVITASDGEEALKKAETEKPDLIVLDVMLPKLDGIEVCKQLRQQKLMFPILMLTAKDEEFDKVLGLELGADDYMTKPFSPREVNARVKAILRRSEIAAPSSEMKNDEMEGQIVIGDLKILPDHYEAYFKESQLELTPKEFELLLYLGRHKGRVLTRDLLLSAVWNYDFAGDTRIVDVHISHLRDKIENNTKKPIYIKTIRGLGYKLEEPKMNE
Assay: co-IP + cross-linking

- binding: binds
B1: YycG (protein, UniProt Q45614 1-611)
chain: MNKVGFFRSIQFKITLIYVLLIIIAMQIIGVYFVNQVEKSLISSYEQSLNQRIDNLSYYIEQEYKSDNDSTVIKDDVSRILNDFTKSDEVREISFVDKSYEVVGSSKPYGEEVAGKQTTDLIFKRIFSTKQSYLRKYYDPKSKIRVLISAKPVMTENQEVVGAIYVVASMEDVFNQMKTINTILASGTGLALVLTALLGIFLARTITHPLSDMRKQAMELAKGNFSRKVKKYGHDEIGQLATTFNHLTRELEDAQAMTEGERRKLASVIAYMTDGVIATNRNGAIILLNSPALELLNVSRETALEMPITSLLGLQENYTFEDLVEQQDSMLLEIERDDELTVLRVNFSVIQREHGKIDGLIAVIYDVTEQEKMDQERREFVANVSHELRTPLTTMRSYLEALAEGAWENKDIAPRFLMVTQNETERMIRLVNDLLQLSKFDSKDYQFNREWIQIVRFMSLIIDRFEMTKEQHVEFIRNLPDRDLYVEIDQDKITQVLDNIISNALKYSPEGGHVTFSIDVNEEEELLYISVKDEGIGIPKKDVEKVFDRFYRVDKARTRKLGGTGLGLAIAKEMVQAHGGDIWADSIEGKGTTITFTLPYKEEQEDDWDEA

— doi:10.1101/2025.06.29.661413
